The values that follow come from PubChem BioAssay AID2685 (National Center for Advancing Translational Sciences (NCATS), 2010).

Some of the results follow. Shown are side measurements of this screen, not its main read-out; they come without a call. Compounds called inactive in the main read-out are mostly missing here. The note in brackets gives the kind of curve behind each potency; many fits are weak.

This assay can be described thus: qHTS Assay for Lipid Storage Modulators in Drosophila S3 Cells.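 On cell number change: cells counted by Cell Tracker Red CMTPX staining in the red channel.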 As to conditions: BODIPY lipid droplet fluorescence, 18-24 h; for cell number change: measured here: cell count max response, cells fed with added oleic acid. In outline: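 Drosophila S3 cells loaded with oleic acid (400 uM, as added) and compounds at several concentrations; lipid droplets imaged by 488-nm laser-scanning cytometry, 500–530 nm intensity and object ratio to cell channel. Percent activity normalized to 20 uM Triacsin C.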
For orientation: Quantitative high-throughput screening tests each substance at several concentrations.

Where [1] appears, read: measured here: cell number channel AC50, cells fed with added oleic acid.
[2] abbreviates: measured here: lipid fluorescence (Fed channel) AC50, cells fed with added oleic acid.

As to `Cc1noc(C(=O)Nc2cccc(O)c2)c1Cl`, the cell number change was found to be 33.8%. Besides, the AC50 under setting [1] was 18.4 µM [rising, single point]. Further, the AC50 under setting [2] was 29.1 µM [rising, single point].
Take `CN(Cc1ccccc1)C(=O)C1CCN(S(C)(=O)=O)CC1`: the cell number change stood at 15.8%.
Turning to `Cn1c(SCC(N)=O)nnc1C1CCN(S(=O)(=O)c2ccccc2C(F)(F)F)CC1`, the cell number change is -1.62%.
As for `Cc1ccc(OCCNC(=O)C2CCCCC2)cc1`, the cell number change worked out at 19.8%.
With `CN1/C(=C\C(=O)c2cccnc2Cl)C(C)(C)c2ccccc21`, the cell number change was determined as 11.5%. Under setting [1], the AC50 is 0.13 µM [rising, full curve, poor fit]. The AC50 under setting [2] is 20.6 µM [rising, single point].
On to `CC(CCN1C(Nc2ccccc2)=NC[C@@H]1C)c1ccccc1` (stereo not given in full), for which the cell number change turned out to be 18.6%. Further, the AC50 under setting [2] was 29.1 µM [falling, single point].
Take `Cc1ccc(S(=O)(=O)Nc2c(C)nn(C)c2C)cc1C`: the cell number change was found to be 10.8%. In addition, the half-maximal activity concentration (AC50) under setting [1] is 0.461 µM [rising, full curve]. The concentration at half-maximal activity (AC50) under setting [2] was 0.517 µM [rising, full curve].
In the case of `COc1ccc2[nH]c(CN3CCC(n4nccc4NC(=O)C4CC4)CC3)c(C)c2c1`, the cell number change turned out to be 26.9%. The half-maximal activity concentration (AC50) under setting [2] is 0.00461 µM [rising, full curve, poor fit].
Turning to `Cc1ccc(C(=S)N2CCN(Cc3ccccc3)CC2)cc1`, the cell number change was -18.8%. Under setting [2], the AC50 is 1.58 µM [falling, full curve].
`CCCc1cc(C(=O)NCc2ccco2)no1`: the cell number change is -17.6%. In addition, the AC50 under setting [2] was 3.26 µM [falling, partial curve].
In the case of `CCOC(=O)/C(=N\Nc1ncnc2ccccc12)c1ccc(OC)cc1`, the cell number change is -1.8%.
`O=C(O)CNC(=O)c1ccc(NS(=O)(=O)c2ccc3ccccc3c2)cc1`: the cell number change is -5.71%.
With `CCOC(=O)C1(CCCc2ccccc2)CCN(C(=O)CCn2cncn2)CC1`, the cell number change is 0.716%. In addition, under setting [2], the concentration at half-maximal activity (AC50) is 0.366 µM [falling, full curve].
With `CCOc1ccc(-n2c(SCC(N)=O)nc3c(c2=O)SCC3)cc1`, the cell number change was -0.405%.
As to `NCCCCCNC(=O)/C=N\O`, the cell number change was -7.48%. The AC50 under setting [2] is 0.291 µM [falling, full curve, poor fit].
As to `COc1ccc(-c2noc(CCC(=O)Nc3cc(OC)ccc3OC)n2)cc1`, the cell number change turned out to be 3.47%. The concentration at half-maximal activity (AC50) under setting [2] was 0.58 µM [rising, full curve].
Take `CCCn1cc(CN2CCC(C(=O)Nc3cccc(-c4cscn4)c3)CC2)c(C)n1`: the cell number change came out at 9.54%. Further, the AC50 under setting [1] was 5.17 µM [falling, single point]. Also, under setting [2], the AC50 is 4.61 µM [falling, single point].
As for `CCCCn1c(N2CCC(Cc3ccccc3)CC2)nc2c1c(=O)[nH]c(=O)n2C`, the cell number change is -211%. Besides, the AC50 under setting [1] was 20.6 µM [falling, partial curve]. Besides, the AC50 under setting [2] is 18.4 µM [falling, partial curve].
With `CC(NC(=O)C(=O)N1CCOCC1)C(c1cccs1)N1CCN(c2ccccc2)CC1` (stereo not given), the cell number change was -23.2%.
In the case of `COc1ccc(C2/C(=C(/O)c3ccc(C)cc3)C(=O)C(=O)N2C)cc1` (stereo not given), the cell number change was -105%. Also, the AC50 under setting [1] was 32.6 µM [falling, partial curve]. Further, the concentration at half-maximal activity (AC50) under setting [2] is 7.31 µM [falling, partial curve].
In the case of `O=C(O)c1ccccc1Oc1ccc(Oc2ccccc2)cc1`, the cell number change turned out to be 7.67%. Further, under setting [2], the AC50 is 29.1 µM [rising, partial curve, poor fit].
With `S=c1[nH]nc(-c2ccccc2)o1`, the half-maximal activity concentration (AC50) under setting [2] was 2.31 µM [rising, partial curve].
On to `O=C(COc1ccc(Cl)cc1)N(Cc1ccc(F)cc1)C1CCS(=O)(=O)C1` (stereo not given), for which the cell number change was -11.9%.
As to `CCOC(=O)c1c(NC(C)=O)sc2c(OC(C)=O)cccc12`, the cell number change is -35.2%. In addition, the AC50 under setting [1] is 0.146 µM [falling, full curve, poor fit].
For `O=C(CN1C(=O)c2cccc3cccc1c23)NCc1cccnc1`, the cell number change worked out at 246%. In addition, the AC50 under setting [1] was 20.6 µM [rising, partial curve]. The half-maximal activity concentration (AC50) under setting [2] is 3.26 µM [rising, partial curve].
For `COC(=O)[C@H](CCSC)NS(=O)(=O)c1ccccc1Br`, the cell number change was -4.48%. For the same compound, the AC50 under setting [2] is 29.1 µM [rising, single point].
Turning to `Cc1cc(C)cc(NC(=O)CSc2nc3ccccc3nc2N2CCCC2)c1`, the cell number change was -12.7%. Moreover, the concentration at half-maximal activity (AC50) under setting [2] is 16.4 µM [falling, single point].
`COc1ccc(N2C(=O)CSC2c2cccc(F)c2)cc1` (stereo not given): the cell number change is 100%.
For the compound `Cc1ccc(N(Cc2ccccc2F)S(C)(=O)=O)cc1C`, the cell number change is -12.1%. Also, the concentration at half-maximal activity (AC50) under setting [2] is 0.259 µM [falling, full curve].
For `CCCc1nc(SCC(=O)N2CCC(Cc3ccccc3)CC2)c2c(=O)n(C)c(=O)n(C)c2n1`, the cell number change is -40.7%. For the same compound, under setting [1], the AC50 is 9.2 µM [falling, partial curve, poor fit].
Consider `O=C(Cn1c(CO)nc2ccccc21)NCc1ccc2c(c1)OCO2`, for which the cell number change was -40.3%. For the same compound, under setting [1], the concentration at half-maximal activity (AC50) is 29.1 µM [falling, single point]. Also, the AC50 under setting [2] is 29.1 µM [falling, single point].
With `COCCNC(=S)Nc1cc(OC)c(OC)cc1C#N`, the concentration at half-maximal activity (AC50) under setting [2] was 0.058 µM [falling, full curve, poor fit].
The same measure, in the same setting: the result for `CCC(=O)N1N=C(c2ccc(NS(C)(=O)=O)cc2)CC1c1ccc(C)cc1` (stereo not given) reads 0.58 µM [rising, single point].
For `Cc1ncc(CO)c(CNc2ccc(-c3nc4ccccc4[nH]3)cc2)c1O`, the cell number change was found to be 36%. Moreover, under setting [1], the half-maximal activity concentration (AC50) is 29.1 µM [rising, single point].
Take `COC(=O)C(C)Sc1nnc(Cc2cc(=O)[nH]c(=O)[nH]2)n1-c1cc(C)ccc1C` (stereo not given): the cell number change is -2.03%. In addition, under setting [2], the AC50 was 0.082 µM [falling, single point].
As to `Cc1nc(-c2ccc(S(=O)(=O)N3CCN(Cc4ccccc4)CC3)s2)cs1`, the cell number change worked out at 57.9%. In addition, under setting [1], the AC50 is 23.1 µM [rising, single point]. In addition, under setting [2], the AC50 is 20.6 µM [rising, single point].
As for `COCCSc1ccccc1C(=O)N1CCN(c2ccccc2OC)CC1`, the cell number change was -64.8%. Also, under setting [1], the AC50 is 18.4 µM [falling, single point]. Also, the AC50 under setting [2] is 18.4 µM [falling, single point].
As to `Cc1cc(=O)n(C)c(=O)n1CCCNc1ccccc1`, the AC50 runs as follows: under setting [1], 0.58 µM [falling, partial curve, poor fit]; under setting [2], 0.517 µM [falling, partial curve, poor fit].
On to `Cc1ccc(S(=O)(=O)NCCCN(C)C)cc1`, for which the cell number change turned out to be 0.481%. In addition, the AC50 under setting [2] is 0.13 µM [falling, full curve, poor fit].
Regarding `CCSc1cc(N2CC(C)OC(C)C2)nc(-c2ccccc2Cl)n1` (stereo not given), the cell number change was -1.01%.
In the case of `COc1ccc2nc(Nc3nc4ccc(NC(C)=O)cc4s3)sc2c1`, the cell number change was -35.5%. Also, the AC50 under setting [1] was 32.6 µM [falling, single point].
As for `N#Cc1c(-c2ccc(Cl)cc2Cl)nc2n(c1=O)CCS2`, the cell number change was 11%. Besides, under setting [2], the concentration at half-maximal activity (AC50) is 3.26 µM [falling, partial curve].
On to `CCC(C(=O)N1CCN(S(=O)(=O)c2ccc(F)cc2)CC1)c1ccccc1` (stereo not given), for which the cell number change was -0.417%. The half-maximal activity concentration (AC50) under setting [1] was 1.03 µM [falling, full curve, poor fit]. The concentration at half-maximal activity (AC50) under setting [2] was 4.11 µM [falling, single point].
On to `CC(C)N1CCc2c(sc(NC(=O)c3cc4cc([N+](=O)[O-])ccc4s3)c2C(N)=O)C1`, for which the cell number change was 27.1%. In addition, the half-maximal activity concentration (AC50) under setting [1] is 0.517 µM [rising, full curve, poor fit]. Moreover, the AC50 under setting [2] was 1.16 µM [rising, single point].
`CC(/C=N/NC(=O)CSc1nnc(SCc2ccccc2)s1)=C\c1ccco1`: the cell number change stood at 12%. The half-maximal activity concentration (AC50) under setting [2] was 0.58 µM [falling, single point].
As to `Cc1ccc(-n2[nH]c(C)c(C=NC34CN5CN(CN(C5)C3)C4)c2=O)cc1C`, the cell number change was -13.5%. The AC50 under setting [2] was 29.1 µM [falling, single point].
Consider `COc1cc(C)ccc1OCc1cc(C(=O)NCc2ccncc2)no1`, for which the cell number change came out at 50.7%. Also, under setting [2], the AC50 was 14.6 µM [rising, partial curve].
For `Cc1ccc(C(=O)Nc2nnc(S(=O)(=O)N3CCC(C)CC3)s2)cc1`, the AC50 under setting [2] is 23.1 µM [rising, single point].
Regarding `COc1cc(OC)c(C(=O)OCC(=O)Nc2cc(C)on2)cc1OC`, the cell number change is -19.7%.
Consider `Cc1ccc(C2CC(=O)Nc3cc4c(cc32)OCO4)o1` (stereo not given), for which the cell number change stood at 22.6%. Moreover, the concentration at half-maximal activity (AC50) under setting [1] is 0.082 µM [rising, full curve, poor fit].
`O=C(NCCCO)c1cc2c(cn1)[nH]c1ccccc12`: the cell number change is 43%. Further, under setting [1], the AC50 was 1.46 µM [rising, full curve]. Besides, the half-maximal activity concentration (AC50) under setting [2] was 6.51 µM [rising, single point].
Take `CCOC(=O)C1CCCN(C(=O)CN2CCN(Cc3ccc(Cl)cc3)C2=O)C1` (stereo not given): the cell number change was found to be 28.4%. For the same compound, under setting [2], the concentration at half-maximal activity (AC50) is 29.1 µM [falling, single point].
For the compound `COc1ccc2nc(C)cc(N3CCN(c4ccccc4)CC3)c2c1`, the cell number change amounted to 3.23%. For the same compound, the AC50 under setting [2] is 4.61 µM [falling, full curve].
`COc1ccc(CCNC(=O)CSc2nc3[nH]ncc3c(=O)[nH]2)cc1OC`: the AC50 under setting [2] was 11.6 µM [falling, partial curve, poor fit].
Turning to `COc1cnn(-c2ccc(Br)cc2)c(=O)c1SCc1ccccc1`, the cell number change was -5.89%. The half-maximal activity concentration (AC50) under setting [2] was 0.146 µM [falling, full curve, poor fit].
Consider `COc1ccc(NC(=O)[C@@H]2CCCN2S(=O)(=O)c2cccc3cccnc23)cc1`, for which the cell number change was -13.3%.
For `COc1ccc(CCNC(=O)C2CCN(C(=O)c3ccc(Cl)cc3)CC2)cc1OC`, the cell number change was -4.4%. For the same compound, under setting [2], the concentration at half-maximal activity (AC50) was 6.51 µM [falling, single point].
Take `O=P(O)(CP(=O)(c1ccccc1)c1ccccc1)c1ccccc1`: the cell number change turned out to be 5.16%. Further, the AC50 under setting [2] is 32.6 µM [falling, single point].
With `COC(=O)c1ccn(-c2nc(-c3ccco3)cc(C(F)(F)F)n2)n1`, the cell number change was determined as 40.1%. In addition, the AC50 under setting [1] was 3.66 µM [rising, full curve]. Moreover, under setting [2], the AC50 is 6.51 µM [rising, partial curve].
With `CN(Cc1ccco1)C(=O)Cn1ncc2c([nH]c3ccccc32)c1=O`, the cell number change is -19%. Further, the AC50 under setting [2] was 0.517 µM [falling, single point].
As to `CCCCCc1cc(=O)oc2c(C(CCN3CCCC(C)C3)c3ccc(N(C)C)cc3)c(OC)cc(OC)c12` (stereo not given), the cell number change was -67.1%. Moreover, the AC50 under setting [1] was 29.1 µM [falling, single point]. The AC50 under setting [2] was 1.84 µM [falling, partial curve].

What is called AC50 is the midpoint of the concentration-response curve, whichever way the signal moves.
